Data published in PMC6639074.

Molecular target: GST-Rab11A, GTP-locked (QL) (human)
Assay: pull-down; GST-Rab on glutathione Sepharose beads with GppNHp or GDP (100 uM), lysate of HEK293T cells (HeLa in the legend of Figure 7E), untransfected or expressing FLAG-HPS3; 1% Triton X-100, high salt elution, immunoblot; only the target purified

B1: RELCH/KIAA1468 (protein, UniProt Q9P260 1-1216)
chain: MAAMAPGGSGSGGGVNPFLSDSDEDDDEVAATEERRAVLRLGAGSGLDPGSAGSLSPQDPVALGSSARPGLPGEASAAAVALGGTGETPARLSIDAIAAQLLRDQYLLTALELHTELLESGRELPRLRDYFSNPGNFERQSGTPPGMGAPGVPGAAGVGGAGGREPSTASGGGQLNRAGSISTLDSLDFARYSDDGNRETDEKVAVLEFELRKAKETIQALRANLTKAAEHEVPLQERKNYKSSPEIQEPIKPLEKRALNFLVNEFLLKNNYKLTSITFSDENDDQDFELWDDVGLNIPKPPDLLQLYRDFGNHQVTGKDLVDVASGVEEDELEALTPIISNLPPTLETPQPAENSMLVQKLEDKISLLNSEKWSLMEQIRRLKSEMDFLKNEHFAIPAVCDSVQPPLDQLPHKDSEDSGQHPDVNSSDKGKNTDIHLSISDEADSTIPKENSPNSFPRREREGMPPSSLSSKKTVHFDKPNRKLSPAFHQALLSFCRMSADSRLGYEVSRIADSEKSVMLMLGRCLPHIVPNVLLAKREELIPLILCTACLHPEPKERDQLLHILFNLIKRPDDEQRQMILTGCVAFARHVGPTRVEAELLPQCWEQINHKYPERRLLVAESCGALAPYLPKEIRSSLVLSMLQQMLMEDKADLVREAVIKSLGIIMGYIDDPDKYHQGFELLLSALGDPSERVVSATHQVFLPAYAAWTTELGNLQSHLILTLLNKIEKLLREGEHGLDEHKLHMYLSALQSLIPSLFALVLQNAPFSSKAKLHGEVPQIEVTRFPRPMSPLQDVSTIIGSREQLAVLLQLYDYQLEQEGTTGWESLLWVVNQLLPQLIEIVGKINVTSTACVHEFSRFFWRLCRTFGKIFTNTKVKPQFQEILRLSEENIDSSAGNGVLTKATVPIYATGVLTCYIQEEDRKLLVGFLEDVMTLLSLSHAPLDSLKASFVELGANPAYHELLLTVLWYGVVHTSALVRCTAARMFELTLRGMSEALVDKRVAPALVTLSSDPEFSVRIATIPAFGTIMETVIQRELLERVKMQLASFLEDPQYQDQHSLHTEIIKTFGRVGPNAEPRFRDEFVIPHLHKLALVNNLQIVDSKRLDIATHLFEAYSALSCCFISEDLMVNHFLPGLRCLRTDMEHLSPEHEVILSSMIKECEQKVENKTVQEPQGSMSIAASLVSEDTKTKFLNKMGQLTTSGAMLANVFQRKK
For B1, the binding was “binds”.

These are yes or no findings as the source states them, for the method shown. In cells and extracts the contact can be indirect. Binding can be weak; no strength is given.
